Measurements reported in PubChem BioAssay AID602196 (INSERM, 2012).
Test: 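Genes whose knock-down alters cisplatin killing of lung cancer cells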. Cell system: human A549 lung cancer cells. Reagent: siRNA pair against human genes. Duration: 48 h transfection before cisplatin; time from cisplatin to read-out not stated. Conditions: cisplatin at a dose killing half of control-siRNA cells; exact dose and duration not given. Measured: 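Cisplatin cell death as a shift from the 50% death seen with control siRNA; siRNAs toxic or growth-blocking alone scored 0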. Reading the numbers: two-siRNA summed score (-2 to +2): higher = both siRNAs protect from cisplatin killing; -2 means both sensitise; mean protection from cisplatin (shift in death) and protection from cisplatin (shift in death), siRNA C and protection from cisplatin (shift in death), siRNA D: higher = protection from cisplatin killing. Rule for the call: 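siRNAs harmful alone (LDH or WST-1) get 0; others get +1 for less and -1 for more cisplatin killing; genes are active when the two siRNAs give the same sign, summing to ±2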. Calls: active = both siRNAs shift cisplatin killing the same way; inactive = no consistent shift, or siRNA harmful alone.
Here is one part, drawn at random, of about 23,000 reagents. 455 of all reagents (2%) were called active. 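Active includes both protection and sensitisation; some change values fall well beyond the stated -50 to +50 range.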 The numbers tell different reagents against one gene apart. Not given: the amount of reagent.

The first 3 entries, to show the layout:
| Gene | reagent no. | two-siRNA summed score (-2 to +2) | mean protection from cisplatin (shift in death) (%) | protection from cisplatin (shift in death), siRNA C (%) | protection from cisplatin (shift in death), siRNA D (%) | outcome |
| --- | --- | --- | --- | --- | --- | --- |
| IKZF2 | 1 | 0 | 6.3 | 3.1 | 9.5 | inactive |
| PGAP6 | 1 | 0 | -10.9 | -9 | -12.8 | inactive |
| ZNF33A | 1 | 1 | 2 | -6.3 | 10.2 | inactive |

The list itself, repeating the preview:
| Gene | reagent no. | two-siRNA summed score (-2 to +2) | mean protection from cisplatin (shift in death) (%) | protection from cisplatin (shift in death), siRNA C (%) | protection from cisplatin (shift in death), siRNA D (%) | outcome |
| --- | --- | --- | --- | --- | --- | --- |
| IKZF2 | 1 | 0 | 6.3 | 3.1 | 9.5 | inactive |
| PGAP6 | 1 | 0 | -10.9 | -9 | -12.8 | inactive |
| ZNF33A | 1 | 1 | 2 | -6.3 | 10.2 | inactive |
| GYS2 | 1 | 1 | 4.3 | -2.6 | 11.1 | inactive |
| KIAA1987 | 1 | 0 | 6.2 | 1.7 | 10.8 | inactive |
| WRNIP1 | 1 | 0 | -0.1 | -4.8 | 4.6 | inactive |
| SLC25A6 | 1 | 0 | -0.9 | -6.5 | 4.8 | inactive |
| RBP1 | 1 | 1 | 2.7 | 15.4 | -10 | inactive |
| ADGRL4 | 1 | 0 | 6.4 | -17 | 29.7 | inactive |
| ADGRL4 | 2 | 0 | 10.7 | 13.6 | 7.9 | inactive |
| LOC442053 | 1 | 0 | 11.7 | 6.7 | 16.8 | inactive |
| MAB21L1 | 1 | 0 | 14.1 | 10.1 | 18.1 | inactive |
| SLC35A1 | 1 | 0 | 12 | 17.2 | 6.9 | inactive |
| TNNT1 | 1 | 0 | 8.9 | -15.4 | 33.1 | inactive |
| PLPPR4 | 1 | 2 | 26 | 22 | 29.9 | active |
| LOC392164 | 1 | 2 | 16.3 | 18.9 | 13.6 | active |
| PDGFD | 1 | -1 | -3.2 | -16.9 | 10.5 | inactive |
| TIGD6 | 1 | 0 | 5.8 | 2.4 | 9.3 | inactive |
| LOC442118 | 1 | 1 | 7.9 | 0.4 | 15.5 | inactive |
| HCAR3 | 1 | 0 | 2 | -8.6 | 12.6 | inactive |
| EMC10 | 1 | 0 | 13.2 | 14.2 | 12.2 | inactive |
| OASL | 1 | -1 | -8.2 | 9.1 | -25.4 | inactive |
| INTS5 | 1 | 1 | 22.4 | 20.9 | 23.9 | inactive |
| CACNA1I | 1 | 0 | -0.4 | 0.4 | -1.2 | inactive |
| LOC134121 | 1 | 0 | 2.8 | -1.3 | 6.9 | inactive |
| MANF | 1 | 0 | -2 | -3 | -1 | inactive |
| ZPR1 | 1 | 0 | 2.8 | -3.2 | 8.8 | inactive |
| LOC286528 | 1 | 0 | 2 | -3.8 | 7.7 | inactive |
| CXXC4 | 1 | 0 | 16.9 | 1.6 | 32.2 | inactive |
| SLC29A2 | 1 | 1 | 3 | -3.8 | 9.8 | inactive |
| SCAMP3 | 1 | 0 | -13.3 | -15.7 | -10.9 | inactive |
| PTGDR | 1 | 0 | 3.5 | 3.8 | 3.3 | inactive |
| MON2 | 1 | 0 | 5.5 | 9.7 | 1.3 | inactive |
| AMIGO2 | 1 | 1 | 10.2 | 24.1 | -3.7 | inactive |
| LOC400778 | 1 | 0 | -7.3 | -19.9 | 5.3 | inactive |
| TAPT1-AS1 | 1 | 1 | 13.7 | 17 | 10.4 | inactive |
| IL2RA | 1 | -1 | -10.3 | -22.4 | 1.8 | inactive |
| APRT | 1 | 0 | 0.1 | -8.1 | 8.3 | inactive |
| LGALS7 | 1 | 1 | 1.3 | -8.8 | 11.5 | inactive |
| WASH3P | 1 | 0 | 11.6 | 8.5 | 14.7 | inactive |
| SMPD4 | 1 | 0 | 8.3 | 14.4 | 2.1 | inactive |
| CRP | 1 | -1 | -14.1 | -10.5 | -17.6 | inactive |
| PRDX3 | 1 | 1 | 14.4 | 19.4 | 9.4 | inactive |
| LOC440924 | 1 | 0 | 3.2 | 5.2 | 1.3 | inactive |
| LOC440052 | 1 | 1 | 14.8 | 9 | 20.5 | inactive |
| GGA3 | 1 | -1 | -10.1 | -23.4 | 3.2 | inactive |
| LOC390638 | 1 | 0 | 7.9 | 19.6 | -3.8 | inactive |
| MT1X | 1 | 1 | 15.5 | 8.8 | 22.1 | inactive |
| UBL7 | 1 | 0 | 8.6 | 12.8 | 4.5 | inactive |
| SMG8 | 1 | 1 | 17.8 | 5.3 | 30.3 | inactive |
| GBE1 | 1 | 0 | 6.9 | 15.1 | -1.3 | inactive |
| LOC344332 | 1 | 0 | 3.8 | -2.8 | 10.4 | inactive |
| LOC129293 | 1 | 0 | 6.1 | 8.4 | 3.8 | inactive |
| ELAPOR2 | 1 | 1 | 14.3 | 14.3 | 14.3 | inactive |
| LOC220429 | 1 | 0 | 19.6 | 22.1 | 17.1 | inactive |
| UCHL3 | 1 | 1 | 6.9 | -8.2 | 22.1 | inactive |
| ASIC2 | 1 | 0 | 3.8 | -0.9 | 8.4 | inactive |
| SENP7 | 1 | -1 | -10 | -20.7 | 0.8 | inactive |
| SLC9C1 | 1 | 0 | 10.5 | 11.1 | 10 | inactive |
| FRMPD4 | 1 | 0 | 12.4 | 15.2 | 9.6 | inactive |
| MYOC | 1 | 0 | -3.1 | -0.7 | -5.5 | inactive |
| OCA2 | 1 | 1 | -0.6 | -18.6 | 17.4 | inactive |
| PPP3R2 | 1 | 0 | 0.5 | 11.1 | -10.1 | inactive |
| SAP130 | 1 | 0 | 0.9 | 9.4 | -7.5 | inactive |
| ATF7 | 1 | -1 | -0.9 | -8 | 6.3 | inactive |
| LINC01597 | 1 | 0 | 1.7 | 7.4 | -3.9 | inactive |
| FADS2 | 1 | 0 | 0.3 | -14.2 | 14.9 | inactive |
| LOC391016 | 1 | 1 | 7.4 | 13.6 | 1.2 | inactive |
| LOC442365 | 1 | 0 | 19.9 | 12.5 | 27.4 | inactive |
| FRK | 1 | 0 | -2.6 | -7.3 | 2 | inactive |
| LOC441050 | 1 | 0 | 6.5 | 15.7 | -2.7 | inactive |
| TAAR6 | 1 | 1 | 4.8 | -2.3 | 12 | inactive |
| PPIAP78 | 1 | 1 | 13.9 | 8.2 | 19.6 | inactive |
